Reference: US6143509A, “Prostate specific antigen peptides and uses thereof” (Abbott Laboratories, priority 1996, dated 2000)
Not every detail of the peptide structures is certain; ends, links or a residue may be inferred. Some compounds share one wording; it may come from a single statement. Ends that are not written are not given here.

Key:
[1] = system: known anti-PSA monoclonal antibodies; assay: Binding to known anti-PSA monoclonal antibodies (summary); conditions: summary statement
Method: An indirect ELISA assay was used to determine the reactivity and specificity of anti-PSA mAbs and pAbs. For the assay, 96 well microtiter plates (Costar, Cambridge, MA) were coated with PSA (0.5 micrograms/well, Abbott Laboratories, in house product, code# 91969, purified from seminal fluid) or peptides (0.1 mg/well) in 0.1 M carbonate-bicarbonate buffer (pH 9.0) overnight at 4° C. The plates were blocked with 1% BSA in PBS buffer (0.008 M sodium phosphate, 0.002M potassium phosphate, 0.14 M sodium chloride and 0.01M potassium chloride, pH 7.4) for 1 hour, then anti-PSA mAbs or pAbs (100 microliters/well) at varying dilutions were added. After incubation for 1 hour at 25° C., the wells were washed with PBS buffer containing 0.5% Tween 20, then 100 microliters/well of alkaline phosphatase-conjugated antibody (goat anti-mouse IgG or goat anti-rabbit IgG--from Pierce, Rockford, IL) at 5000 fold dilution was added and incubation continued for 1-2 hr at 25° C. After washing, 100 microliters/well of p-nitrophenyl phosphate substrate (Pierce, Rockford, Ill.) was added and the absorbance was measured at 405 nm using an automated microtiter plate reader (Molecular Devices Corp. Menlo Oaks, Calif.).
(A). Two-site combinations of capture antibody and Europium chelate (Eu)-labeled antibody was used to determine the inhibition of mAbs binding to PSA by the synthetic peptides derived from PSA. […] After another four washings, the amount of bound Eu-labeled antibody was determined with time-resolved fluorometry previously described (Pettersson et al., Clin. Chem. 41:1480-88 (1995) & Hemmilia et al., Anal. Biochem. 137:335-43 (1984)).
(B). […] After another four washings, 100 μl/well of p-nitrophenyl phosphate substrate (Pierce Chemical Co., Rockford, Ill.) was added and the absorbance was measured at 405 nm using an automated microtiter plate reader.

mAb H50 = assay: Competitive immunoassay: inhibition of total PSA specific mAb binding to PSA; conditions: FIG. 3B; percent inhibition relatively weak compared to ABT4 peptide
mAb P10 = assay: as above; conditions: FIG. 3B; percent inhibition relatively weak compared to ABT4 peptide
goat anti-PSA antiserum = assay: Direct ELISA with alkaline phosphatase-labeled goat anti-PSA antiserum; type: binding; conditions: peptides coated on microtiter plates; FIG. 4
Text: Synthetic peptides were also screened by a direct ELISA assay format which utilized a goat anti-PSA antiserum conjugated to alkaline phosphatase. In particular, peptides were coated on microtiter plates and detected by enzyme-labelled anti-PSA polyclonal antibodies. The goat anti-PSA antiserum was produced by immunization with free PSA. […] In addition to those epitopes identified by mAbs as described above, two new epitopes, ABT2 and ABT7, were identified by the anti-PSA antiserum.

mAb 4H5 = assay: Competitive immunoassay: inhibition of total PSA specific mAb binding to PSA; conditions: FIG. 3B; percent inhibition relatively weak compared to ABT4 peptide

| Molecule | binding to several known anti-PSA monoclonal antibodies [1] | inhibition of PSA binding to mAb H50 (mAb H50) | inhibition of PSA binding to mAb P10 (mAb P10) | epitope identified by goat anti-PSA antiserum (goat anti-PSA antiserum) | inhibition of PSA binding to mAb 4H5 (mAb 4H5) |
| --- | --- | --- | --- | --- | --- |
| DLHVISNDVCAQVHPQK [ABT16, DLHVISNDVCAQVHPQK] | specific binding | inhibits | inhibits |  |  |
| CC(C)C[C@H](NC(=O)[C@H](CCC(=O)O)NC(=O)[C@H](C)NC(=O)[C@@H]1CCCN1C(=O)[C@H](CCC(=O)O)NC(=O)[C@@H](N)CO)C(=O)N[C@H](C(=O)N[C@@H](CC(=O)O)C(=O)N[C@@H](C)C(=O)N[C@H](C(=O)N[C@@H](CCCCN)C(=O)N[C@H](C(=O)O)C(C)C)C(C)C)[C@@H](C)O [ABT7, SEPAELTDAVKV] | specific binding |  |  | identified |  |
| VGGWECEKHSQPWQ [ABT14, VGGWECEKHSQPWQ] | specific binding |  |  |  | selectively inhibits |
